{
  "sequences": {"note": "By UniProt entry, the sequences of proteins in these tests, tags left out.", "UniProt P0C746": "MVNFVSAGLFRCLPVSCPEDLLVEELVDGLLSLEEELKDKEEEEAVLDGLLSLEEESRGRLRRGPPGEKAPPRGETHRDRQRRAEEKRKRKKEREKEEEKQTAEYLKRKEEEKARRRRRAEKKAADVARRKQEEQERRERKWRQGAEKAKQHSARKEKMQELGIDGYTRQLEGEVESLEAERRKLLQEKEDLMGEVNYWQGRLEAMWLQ", "UniProt Q04206": "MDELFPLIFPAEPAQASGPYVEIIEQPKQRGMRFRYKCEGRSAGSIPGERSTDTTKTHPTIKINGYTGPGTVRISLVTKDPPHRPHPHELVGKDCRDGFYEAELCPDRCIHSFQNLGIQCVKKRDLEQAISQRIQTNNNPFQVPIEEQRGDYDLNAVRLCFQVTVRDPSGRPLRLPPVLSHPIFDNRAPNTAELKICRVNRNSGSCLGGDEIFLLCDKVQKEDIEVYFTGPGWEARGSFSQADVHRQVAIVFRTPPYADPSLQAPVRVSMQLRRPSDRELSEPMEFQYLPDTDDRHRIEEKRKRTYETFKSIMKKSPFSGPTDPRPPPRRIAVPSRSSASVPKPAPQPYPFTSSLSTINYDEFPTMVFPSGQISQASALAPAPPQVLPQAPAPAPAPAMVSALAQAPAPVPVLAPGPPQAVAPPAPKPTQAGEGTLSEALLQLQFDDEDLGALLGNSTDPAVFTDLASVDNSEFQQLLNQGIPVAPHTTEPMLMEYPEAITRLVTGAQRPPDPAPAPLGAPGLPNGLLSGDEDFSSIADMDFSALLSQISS"},
  "source": "paper PMC6581700",
  "molecules": {"B1": {"name": "p52 (protein, UniProt Q00653 1-454)", "chain": "MESCYNPGLDGIIEYDDFKLNSSIVEPKEPAPETADGPYLVIVEQPKQRGFRFRYGCEGPSHGGLPGASSEKGRKTYPTVKICNYEGPAKIEVDLVTHSDPPRAHAHSLVGKQCSELGICAVSVGPKDMTAQFNNLGVLHVTKKNMMGTMIQKLQRQRLRSRPQGLTEAEQRELEQEAKELKKVMDLSIVRLRFSAFLRASDGSFSLPLKPVISQPIHDSKSPGASNLKISRMDKTAGSVRGGDEVYLLCDKVQKDDIEVRFYEDDENGWQAFGDFSPTDVHKQYAIVFRTPPYHKMKIERPVTVFLQLKRKRGGDVSDSKQFTYYPLVEDKEEVQRKRRKALPTFSQPFGGGSHMGGGSGGAAGGYGGAGGGGSLGFFPSSLAYSPYQSGAGPMGCYPGGGGGAQMAATVPSRDSGEEAAEPSAPSRTPQCEPQAPEMLQRAREYNARLFGLA"}},
  "molecular_target": "Flag-HBZ (HTLV-1 bZIP factor) (HTLV-1) (UniProt P0C746)",
  "assay": "co-IP; HEK293T cells transfected with 1 ug of each expression vector, harvested after 24 h; lysed in 10 mM Tris-HCl pH 7.5, 5 mM EDTA, 150 mM NaCl, 1% Triton X-100; Flag-tagged protein precipitated with anti-Flag antibody overnight at 4°C on Dynabeads Protein G or A; partner detected by western …",
  "note": "Results are given in words; binding and its absence hold for the method and conditions named. In cells and extracts the contact can be indirect. Some entries that bind do so weakly or less than the wild type.",
  "data": [
    {"molecule": "Tax-1 (from UniProt P03409 1-353)", "values": [
      {"measurement": "binding", "value": "no binding"}
    ]},
    {"molecule": "p65/RelA (from UniProt Q04206 1-551)", "values": [
      {"measurement": "binding", "value": "binds"}
    ]},
    {"molecule": "B1", "values": [
      {"measurement": "binding", "value": "binds"}
    ]}
  ]
}
